# Library screen at single concentrations

The values are deposited in ChEMBL (CHEMBL3988442, “University of Dundee, Small-Polar-MMV Screening Library” (2021)).

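Whole-cell growth test on Mycobacterium tuberculosis, read after 3 days in glucose-containing 7H9 medium; the read-out is not stated. Tested at 500 µM. The record gives no direction; compounds that gave an IC50 in retests scored well above the rest, so higher reads as more growth inhibition. Size under these conditions: about 18,000 compounds, about 1,400 of them at 50% or above in at least one test.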

Values are the deposited “Percent Effect”, in %. The controls that fix the scale are not given in the record; negative values are as filed. Compounds were drawn at random from those tested, without regard to their results.

compound: CN(CCCN)C(=O)Cc1ccccc1Br
percent effect: 3.439

compound: CC(C)CC(=O)Nc1cc(C(C)C)n[nH]1
percent effect: -1.689

compound: Cc1occc1S(=O)(=O)Cc1nc(C2CC2)n[nH]1
percent effect: 2.822

compound: CCCn1cc(NC(=O)C(CC)CC)ccc1=O
percent effect: 23.66

compound: CNC(=O)CNC(=O)c1csc(-c2cc(Br)cs2)n1
percent effect: 4.889

compound: CC1CS(=O)(=O)CCN1Cc1ccccn1 (centres undefined)
percent effect: 0.1752

compound: CCCC(=O)NCCN=c1ncnc2n(C)[nH]c(Br)c1-2
percent effect: 21.86

compound: CCn1cc(N)cn1
percent effect: 22.46

compound: CN(C)C(=O)CNC(=O)c1c[nH]c2cc(F)ccc12
percent effect: 5.022

compound: C1CC(CNC2CC2)CO1 (centres undefined)
percent effect: -5.82

compound: CC(C)c1noc(CCC(=O)N2CCCC2)n1
percent effect: 44.66

compound: COc1ccc(CCNC(=O)CSc2nncs2)cc1
percent effect: 49.12

compound: NCc1ccc2occc2c1
percent effect: 14.11

compound: Cc1nc(CCN)cc(NC2CCC2)n1
percent effect: 68.28

compound: COCC(C)Nc1ccc2nnc(C3CC3)n2n1 (centres undefined)
percent effect: -1.82

compound: CCNC(=O)c1cc(C#N)cn1C
percent effect: 40.18

compound: CC(=O)c1cnnn1C
percent effect: -2.19

compound: CN1CCCC(C)(CO)C1 (centres undefined)
percent effect: -4.851

compound: Cc1cc(S(=O)(=O)Nc2cccnc2N(C)C)c(C)o1
percent effect: 46.69

compound: NCC(CO)Cc1ccco1 (centres undefined)
percent effect: -0.174

compound: c1nn[nH]c1SCCNC1CCOC2(CCOCC2)C1 (centres undefined)
percent effect: 2.571

compound: CN(C(=O)c1cccn1C)C1CCCC1
percent effect: 13.58

compound: O=C(NC1CN(c2ccc(C(F)(F)F)cn2)C1)C1CC1
percent effect: -3.966

compound: O=C1CN(CC(=O)N2CCCCCCC2)CCN1
percent effect: 8.697

compound: NC1CC(c2cc(NCCn3cc(Cl)cn3)ncn2)C1 (centres undefined)
percent effect: 5.488

compound: CNCc1csc(C(C)(C)O)n1
percent effect: -10.22

compound: CC(C)(C)NCCNC(=O)CCc1ccccn1
percent effect: -10.78

compound: CSCCN1CCN(C(=O)c2ccc(O)c(Cl)c2)CC1
percent effect: 26.73

compound: C=C(C)COc1c(Cl)cc(C(N)=O)cc1OC
percent effect: 83.29

compound: COCc1cccc(S(=O)(=O)N2CC[C@H](N)C2)c1
percent effect: 12.64

compound: Cn1cc(C2CCCCN2)cn1 (centres undefined)
percent effect: -5.351

compound: CC(C)(CN)CN1CCCC1
percent effect: 4.154

compound: Nc1nccnc1C(=O)Nc1ccccn1
percent effect: 10.11

compound: COc1ccc(CN(C)C(=O)CCNC(C)=O)cc1F
percent effect: 14.56

compound: Cc1nc(C)c(C(=O)NC(C)(C)C)s1
percent effect: 9.305

compound: Cc1noc(C2COCCN2Cc2cncs2)n1 (centres undefined)
percent effect: 10.81

compound: COc1ccc(CCNC(C)=O)c(F)c1
percent effect: -0.1098

compound: Cn1c(=O)c2c(nc(Cl)n2CCCC#N)n(C)c1=O
percent effect: 6.581

compound: C1CCC(NC2CCNCC2)C1
percent effect: -1.737

compound: COc1ccc(-c2ccc(CNS(N)(=O)=O)s2)cc1
percent effect: 8.038

compound: CS(=O)(=O)CC1CCCN(c2nnc(C3CC3)o2)C1 (centres undefined)
percent effect: 4.417

compound: CC(=O)N1CCCN(C(=O)Cc2ccccc2C)CC1
percent effect: 7.999

compound: CN(CCn1cccn1)c1cc(Br)ccn1
percent effect: 59.48

compound: CCC1=NOC(C(=O)N2CCC(c3nnc[nH]3)CC2)C1 (centres undefined)
percent effect: -1.732

compound: CCC(NCCn1cc(C)cn1)C(N)=O (centres undefined)
percent effect: 6.501

compound: CC(C)(C)SCCN1CCOC2(CCOCC2)C1
percent effect: -6.393

compound: Cc1ccc(NC(=O)C2CC(=O)N=C(N)S2)cc1Cl (centres undefined)
percent effect: 17.41

compound: COCCCNc1ccc(Br)cn1
percent effect: 44.47

compound: O=C(Cc1c[nH]c2ccccc12)N[C@@H]1CCOC[C@H]1O
percent effect: -4.901

compound: CCOC(C)(C)C(=O)NC(CC)Cn1ccnc1 (centres undefined)
percent effect: -5.779

compound: Cn1cc(N)cc(Cl)c1=O
percent effect: -141.3

compound: CNc1nc(C(=O)N2C[C@H](C3CC3)[C@@H](N)C2)cs1
percent effect: 26.68

compound: CN(CCC#N)C(=O)c1cnn(-c2cccc(Cl)c2)c1
percent effect: 42.45

Repeated from the top, 4 entries:

compound,percent effect
CN(CCCN)C(=O)Cc1ccccc1Br,3.439
CC(C)CC(=O)Nc1cc(C(C)C)n[nH]1,-1.689
Cc1occc1S(=O)(=O)Cc1nc(C2CC2)n[nH]1,2.822
CCCn1cc(NC(=O)C(CC)CC)ccc1=O,23.66